Taken from: PubChem BioAssay AID1159584 (Peter MacCallum Cancer Centre, 2016)
The whole screen tested about 18,000 reagents; shown is an unselected part. Further read-outs or replicates are left out here. Not given: the amount of reagent, the time to read-out.

Test: 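Genes whose loss is lethal only together with E-cadherin loss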 (primary screen)
Cells: human MCF10A breast epithelial cells, parental and CDH1-null
Reagents: siRNA against human genes
Detection: 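Cell viability by CellTiter-Glo ATP luminescence, each line scaled to the mean of mock wells across plates, then CDH1-null over parental ratio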
Reading the numbers: CDH1-null / parental viability ratio: higher = CDH1-null cells survive relatively better than parental; CDH1-null viability vs mock: higher = more viable CDH1-null cells

gene symbol | CDH1-null / parental viability ratio | CDH1-null viability vs mock (fraction of mock)
CEP63 | 0.93 | 0.76
HSPB3 | 1.06 | 0.99
BRD4 | 0.79 | 0.48
NOL10 | 1.06 | 0.66
EBF3 | 1.19 | 1.02
TMEM44 | 0.91 | 0.67
TCL6 | 0.97 | 0.68
CHI3L2 | 1.07 | 0.92
MYO1G | 1.2 | 0.48
MYOG | 1.13 | 1.06
FAH | 1.06 | 0.93
PFDN6 | 0.73 | 0.57
IGF2R | 0.83 | 0.84
ATP1A3 | 1.22 | 0.96
KLK12 | 1.09 | 0.81
DXO | 0.5 | 0.28
MYH14 | 0.94 | 0.76
ZMYM5 | 0.99 | 1.09
PDSS2 | 1.14 | 1.25
TNFRSF10D | 1.24 | 0.89
HOXB2 | 0.99 | 1.08
PM20D2 | 1.11 | 0.78
MAP3K3 | 0.82 | 0.72
MICU1 | 0.83 | 0.52
COASY | 0.98 | 0.88
MYF6 | 1.12 | 0.87
CMPK2 | 0.86 | 0.54
VSTM4 | 1.06 | 0.9
LHFPL1 | 1.02 | 0.84
SLC8A2 | 0.74 | 0.62
GRAMD2A | 1.37 | 1.12
RTF1 | 0.74 | 0.34
TUBB4B | 1.03 | 0.99
CST5 | 1.29 | 0.44
DBH | 0.86 | 0.82
TOMM70 | 1.26 | 1.08
OR51D1 | 1.53 | 1.12
OR51L1 | 0.83 | 0.43
KLHL8 | 0.96 | 0.72
SETBP1 | 1.37 | 0.85
LAT | 1.35 | 0.58
PRR22 | 0.96 | 0.74
TYROBP | 1.02 | 0.85
CD244 | 1.13 | 1.15
GPX6 | 0.91 | 0.64
ORC2 | 1.06 | 0.74

A portion from the list above:
gene symbol | CDH1-null / parental viability ratio | CDH1-null viability vs mock (fraction of mock)
COASY | 0.98 | 0.88
MYF6 | 1.12 | 0.87
CMPK2 | 0.86 | 0.54
VSTM4 | 1.06 | 0.9
LHFPL1 | 1.02 | 0.84
